The other results are listed elsewhere or left out.
B1: il2ra_site1_3nfp_sap_19_mot_b9b1aa0f98829a21a591038753170461_0001_1_af2_000000119_0001_3_14_H_._611abf4560985a38fcb56c97b2cc3b8d_0001_0001_0000300020_0000001_0_ … (protein)
chain: DEEVEKLFEELKKRIPPEEVVRILLEELEEKLGNPHRASEIVMKVLLRLGFDIEEIARLLKRARE
B2: il2ra_site1_1z92_sap_23_mot_HHH_b2_02540_000000162_0001_1_16_H_._12a7ffe86416d83887ddd0891a48ef14_0001_0001_0000600022_0000001_0_0001_af2pred_0001_af2pred (protein)
chain: SSSSDLERSLRIAVEAAVEQAGLSEEQREELEKLVEELVERGVDFKEASKILDRVALELESSSSS
B3: il2ra_site1_3nfp_normal_mot_HHH_b1_08723_000000044_0001_1_15_H_._HHH_b1_08624_af2_0001_0000200015_0000001_0 (protein)
chain: SSSSSEQEQVEKLFRELFELAQRDDKEEVERVAEELERLLEELNNESHLRSVRNALKLLDSSSSS
B4: il2ra_site1_1z92_sap_13_mot_47733d3662eb36425869ff66b6028fdd_0001_af2_000000189_0001_37_50_H_._HHH_b2_05878_0001_0000300046_0000001_0_0001 (protein)
chain: TRKWLQERIEELREEGVPPEEIVKILLEQVEKDSGDPKLALQFLATLLRKLGDPELLKVLEELIK
B5: il2ra_site2_3nfp_normal_mot_HHH_b1_00660_af2_000000090_0001_40_57_H_._HHH_b2_02148_0001_0000400016_0000001_0_af2pred_0001_1_af2pred_swapped (protein)
chain: SSSSSDEEVREEVEELLEEAKHIPDPEERERLVLEASHLAAEAGDEELIMLVLQVLERVTSSSSS
B6: il2ra_site1_3nfp_normal_mot_HHH_b2_02053_000000240_0001_1_20_H_._HEEHE_0287_af2_0001_0000100003_0000001_0 (protein)
chain: HRDEAVRWLIEQKAEHLGVPHVEVEEHNGKLSVTVKGNDESAEELAEFAERAAEAARVPLEVRFK
B7: il2ra_site1_3nfp_normal_mot_HHH_b1_08357_af2_000000270_0001_1_19_H_._0c70b1737afd558c88fc2c362a6b1452_0001_1_af2_0001_0001100020_0000001_0 (protein)
chain: SLEQFEEDIRRNGDPEAEEALKEAVELLRELGVPPAEAAWIFIRLVVELGDPQEALRVVEEEVRK
B8: il2ra_site1_2b5i_sap_13_mot_0e5a94e4a5addaac739760efb25f0f5d_0001_000000246_0001_18_32_H_._401b3fc81aeba90f4e6d1021399306aa_0001_1_af2_0001_0000200010_0000001_0 … (protein)
chain: SSSSDEELHQVDELYREASELFRNGNPEEARKVLEEALELAKEAGDPVAVEDIRRLLEMLKSSSS
B9: il2ra_site2_3nfp_normal_mot_HHH_b1_01964_000000000_0001_19_36_H_._HHH_b1_06573_0001_0000100005_0000001_0_af2pred_0001_af2pred (protein)
chain: SSSSEEELQELLRRAKELLEEGNPEEALRLLAEALEIALELGDRELAFEIMALASEVAELLSSSS
B10: il2ra_site1_1z92_sap_19_mot_HHH_b1_01957_af2_000000000_0001_1_17_H_._HHH_b1_03966_0001_0000500021_0000001_0_0001_af2pred_0001_af2pred_1 (protein)
chain: SSSSSEKDRKLVRVLAKLLSKFQLSQEQLKILHEVALELAERGVSEEEIEEILEEVAKELSSSSS
B11: il2ra_site1_1z92_normal_mot_35b94aac26684153dbcc4bf06a514b74_0001_1_000000068_0001_35_49_H_._HHH_b2_03659_0001_0000200018_0000001_0_af2pred_0001_af2pred_1 (protein)
chain: SSSSDELERVVEELVEELGLDEDAKKRLEEAVEELKELGLSEEQAEKFLELLARHAAEHLSSSSS
B12: il2ra_site2_3nfp_normal_mot_49a7c9051cacde34b31d84fabeb7f3ea_0001_af2_000000030_0001_39_52_H_._HHH_b2_06514_af2_0001_0000600021_0000001_0 (protein)
chain: SSSSDEEEEELERLQELLKRLEEEGDRFELLRVLLRAVQLANRLGDEEAARRELKLYEKLASSSS
B13: il2ra_site1_2b5i_normal_mot_0e5a94e4a5addaac739760efb25f0f5d_0001_000000289_0001_18_32_H_._fe6bf14837f0eca3ce69ff8b196801f6_0001_0001_0000400021_0000001_0 (protein)
chain: SIEELAREAAELVEDPEVSKALVRVAWRERVGVLSPEAEELFEELVELIKKGDPRIEEIAKEILN
B14: il2ra_site2_3nfp_sap_23_mot_HHH_b1_04232_000000091_0001_1_18_H_._HHH_b2_02870_0001_0000100002_0000001_0_0001 (protein)
chain: SSSSDEVDRLIIEAYELLLNGNPEEAAKLLEEALELARELGDEEAERHIEEVLHALKMSLSSSSS
B15: il2ra_site1_3nfp_normal_mot_cb30422a6ab91adc1f3d04a5d8d2ea43_0001_000000171_0001_1_15_H_._c76af47b9a218f83f7bafcda6da8da14_0001_1_af2_0001_0001400027_0000001_0_ … (protein)
chain: DEAEELVERALELANGDEILALYLLAKLAAELGIPPEELEKLVQEVLEKTGDPRVRRILRALRRE
B16: il2ra_site1_1z92_normal_mot_HHH_b2_04293_000000220_0001_23_38_H_._HHH_b2_03060_0001_0000100003_0000001_0 (protein)
chain: SSSDEESERAVELAVRVAVEMANLSEEQKELLEELARELLEEGVDVLEIIKLLDELALRLESSSS
B17: il2ra_site1_3nfp_sap_16_mot_1d0af4279e6cd48282cc3e51f763a6be_0001_000000077_0001_33_47_H_._HEEHE_3114_0001_0000300017_0000001_0_0001_af2pred_0001_af2pred_1_swap … (protein)
chain: DEEKELAELIKEAVEKNDPELLERVARELLKELGDPRAASELFKELLKKAGLSPKEIYEALRSVA
B18: il2ra_site2_3nfp_normal_mot_HHH_b1_05627_af2_000000038_0001_43_56_H_._HHH_b1_00117_0001_0000500025_0000001_0 (protein)
chain: SSSSKSHEYLRVALLIAKLALEQGDPESARESAEAALQLAEDAKDPELFEEIERLLEEIEGSSSS
B19: il2ra_site1_2b5i_normal_mot_HHH_b2_04910_000000118_0001_1_19_H_._HHH_b2_04613_af2_0001_0000200035_0000001_0_af2pred_0001_af2pred (protein)
chain: SSSSDRELAERVWELLEEANEAFKNGNPEEAEKLLEEARELAEENNNRSLLKVVEAALRILSSSS

Each binder was assayed against il2ra, P01589 (assay: yeast display titration).

Apparent Kd, inactive:
B1 no binding seen, B2 no binding seen, B3 no binding seen, B4 no binding seen, B5 no binding seen, B6 no binding seen, B7 no binding seen, B8 no binding seen, B9 no binding seen, B10 no binding seen, B11 no binding seen, B12 no binding seen, B13 no binding seen, B14 no binding seen, B15 no binding seen, B16 no binding seen, B17 no binding seen, B18 no binding seen, B19 > 670 nM

From paper PMC10163288
